Laboratory results as given in patent publication US5726188A, “Optically active imidazolidinone derivatives and processes for preparing them” (Kyorin Pharmaceutical Co., Ltd., priority 1993, dated 1998).
For at least one compound, name, drawing or mass did not settle the structure.

Tested on: M1 and M2 muscarinic receptors
Experiment: Selectivity to M1 receptor (ratio of IC50 values from the M1 and M2 binding experiments)
Design: species or system rat
Procedure: 3) Selectivity to M1 receptor
This was determined from the ratio of IC50 values of compound obtained from the binding experiments of M1 and M2 muscarinic receptors. [formula]

Structure (SMILES)	IC50 (M2)/IC50 (M1)
O=C1N(c2ccc(F)cc2)CCN1[C@H]1CCCN(Cc2ccccc2)C1 [Referential example 9, (S)-1-(4-fluorophenyl)-3-[3-(1-phenylmethyl)piperidyl]-2-imidazolidinone]	> 2.7
O=C1N(c2ccc(F)cc2)CCN1C1CCCN(Cc2ccccc2)C1 (racemic) [Referential example 8, (±)-1-(4-fluorophenyl)-3-[3-(1-phenylmethyl)piperidyl]-2-imidazolidinone]	13.6
